# Measurements reported in publication PMC7819943, “Rice protein-binding microarrays: a tool to detect cis-acting elements near promoter regions in rice”.
# The other results are listed elsewhere or left out.
# Target: T1, OsSMF1 (Oryza sativa, UniProt Q6ZLB0 1-436)
# T1 sequence: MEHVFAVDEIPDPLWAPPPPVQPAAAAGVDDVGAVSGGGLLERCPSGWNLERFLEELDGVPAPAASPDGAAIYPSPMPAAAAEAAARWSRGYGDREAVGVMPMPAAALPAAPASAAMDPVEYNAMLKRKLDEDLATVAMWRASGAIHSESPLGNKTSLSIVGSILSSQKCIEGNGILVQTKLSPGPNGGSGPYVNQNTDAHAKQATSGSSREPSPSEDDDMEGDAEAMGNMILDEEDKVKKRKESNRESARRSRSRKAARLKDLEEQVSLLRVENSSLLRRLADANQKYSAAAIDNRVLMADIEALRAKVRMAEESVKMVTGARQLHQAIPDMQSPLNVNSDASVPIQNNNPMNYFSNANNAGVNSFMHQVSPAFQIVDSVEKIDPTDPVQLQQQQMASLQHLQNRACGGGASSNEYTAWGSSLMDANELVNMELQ
# Assay: protein-binding microarray (RPBM); PBS, 2% BSA, 51.3 ng/ul salmon testes DNA, 50 uM zinc acetate, 200 nM TF, 25 C, 1 h; high values mean tight binding
# Conditions: protein: recombinant; tags: N-terminal polyhistidine and DsRed monomer fusion (pET32a); chain copies: 2; label: CyDye5-dUTP incorporated in the synthesized complementary strand; 3' TTTTT single-stranded linker to array surface; dsDNA, one strand shown
# How it was run: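 The binding signal for each feature is its fluorescence intensity in arbitrary units. An Axon 4000B scanner was used to read a custom Agilent array that had been made double-stranded with Cy5-dUTP primer extension, blocked with 2% BSA, incubated at 25 °C for 1 h with 200 nM protein in PBS, 2% BSA, salmon testes DNA and 50 µM zinc acetate, and washed. The protein was an N-terminal polyhistidine–DsRed transcription factor fusion from E. coli BL21-CodonPlus, purified on Ni–NTA.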
row,Sequence,binding signal
1,GGTCCCGCCGTGCTTAGCCGATTACTATTGGGTATGTGGTCGGAGTCACCTAGTGCAG,4570 fluorescence intensity (a.u.)
2,GTGAATACATGAAGCCTGAAGTTTGTTTGTCAGCAACGGGCGGAGTCACCTAGTGCAG,3310 fluorescence intensity (a.u.)
3,ACTCGCCTGGAAACCGTGAGATGAATTTATTAAGCCTAATCGGAGTCACCTAGTGCAG,3930 fluorescence intensity (a.u.)
4,AAACCCTCGCCACCACGCGTCTCCGCCTCCGGCGGCGGCGCGGAGTCACCTAGTGCAG,3140 fluorescence intensity (a.u.)
5,GGTCCGCGACACTACTTAGATGTGCACACGAATGCCCTAGCGGAGTCACCTAGTGCAG,3430 fluorescence intensity (a.u.)
6,AGTATGAAAGACCTGAGGATGACCCGGATTATATTCCTATCGGAGTCACCTAGTGCAG,3320 fluorescence intensity (a.u.)
7,GTGGGTCCCACGCTGAGTCAGCTGCCACGTCGGACAAAACCGGAGTCACCTAGTGCAG,33200 fluorescence intensity (a.u.)
8,TAAACTTTTACAAGCAATTATCTTGACCGTTTAATTTAAGCGGAGTCACCTAGTGCAG,17200 fluorescence intensity (a.u.)
9,TGCGCGAGCTTGGACACGTACTGGAACGTCTTGACCAGCTCGGAGTCACCTAGTGCAG,3870 fluorescence intensity (a.u.)
10,GGTCCATCTCTCCCGCAATCCAACGCGTGCGCGGTGCGCCCGGAGTCACCTAGTGCAG,27300 fluorescence intensity (a.u.)
11,TCCCTTCCCTTGTGGCGGCAGTGGCGAAGGTACCTACGTTCGGAGTCACCTAGTGCAG,3440 fluorescence intensity (a.u.)
12,TGTTTTGTCACATCAGTTGTGCTGGTGTGGCTAAAATGTTCGGAGTCACCTAGTGCAG,3430 fluorescence intensity (a.u.)
13,GGGCTTGTGGCGCACGCGCCTGACACGTGCGCAGCGTCCGCGGAGTCACCTAGTGCAG,9700 fluorescence intensity (a.u.)
14,GGTGACCCACCGTCAAATGCTTGCTCGTCGCGTGGAGAACCGGAGTCACCTAGTGCAG,4430 fluorescence intensity (a.u.)
15,ACGAAAACCAACACATCACCAACTGCTCAGGCATAATTGCCGGAGTCACCTAGTGCAG,3150 fluorescence intensity (a.u.)
16,CGCTCGTCGCCGATCCCATCCTCCCCGCGAGCGATCCGGGCGGAGTCACCTAGTGCAG,3140 fluorescence intensity (a.u.)
17,AACTGCAGCAATATCACTCCCTCCAAATCAGCACATGCATCGGAGTCACCTAGTGCAG,3560 fluorescence intensity (a.u.)
18,CACCCGTCCAAACTGGACACATCACCGCCAGAAGGCGCGGCGGAGTCACCTAGTGCAG,5670 fluorescence intensity (a.u.)
19,CATTGACCGCGATCCGCTCCAATCCGCCGCGTCGTGCGCGCGGAGTCACCTAGTGCAG,4000 fluorescence intensity (a.u.)
20,CTAATTAATTTGTTCCCTTAATTGGCACTTTGAATCTAAGCGGAGTCACCTAGTGCAG,3730 fluorescence intensity (a.u.)
21,CGTAGCTCCGCACGTGCGTCGCTGCGCCACCGGCCGGCCACGGAGTCACCTAGTGCAG,3490 fluorescence intensity (a.u.)

row,Sequence,binding signal
1,AGCCCATCGAACGACCCACCTACGTACGCCGCGTGGTCCTCGGAGTCACCTAGTGCAG,4320 fluorescence intensity (a.u.)
2,TCCTCCTCTTCTTCTTCTCTGTCCGTCGTTCCAAATCTGTCGGAGTCACCTAGTGCAG,3150 fluorescence intensity (a.u.)
3,GTTCCGGCGGCAGGATGACGGTCCAGATCGACGGCACGCTCGGAGTCACCTAGTGCAG,3910 fluorescence intensity (a.u.)
4,TGCTCCTACTTGCTCTCTCCCTCTTTTCCAAAAGGAGCTCCGGAGTCACCTAGTGCAG,3800 fluorescence intensity (a.u.)
5,TTAGGTGGTCCCACACGTCATGCTCTTCCCGTCTTCCACTCGGAGTCACCTAGTGCAG,8890 fluorescence intensity (a.u.)
6,TGGTATTACAAGTGTAGTGATGTATGCATGTCTATTGTATCGGAGTCACCTAGTGCAG,3500 fluorescence intensity (a.u.)
7,AGTATAAAAGACAGAAAACATTTGCTCTATTTGATGACACCGGAGTCACCTAGTGCAG,33500 fluorescence intensity (a.u.)
8,GATGGGGAGAGCTCTCGGCGTGTCCACGTAGGATAGGAACCGGAGTCACCTAGTGCAG,6770 fluorescence intensity (a.u.)
9,CGAGTCCAGCACAGTCGACTGCCACCACCACCGCTGCCGCCGGAGTCACCTAGTGCAG,4160 fluorescence intensity (a.u.)
10,CAAGAGTCCTTTACCCTGCGCCACCTCCTGGCTCACCGGGCGGAGTCACCTAGTGCAG,3270 fluorescence intensity (a.u.)
11,CAGGAGGCTTGCAGAGATGTCCCTCTGCTGCTTCAGCAGCCGGAGTCACCTAGTGCAG,15400 fluorescence intensity (a.u.)
12,AGCCCACGTATGGAAGCCCGAACTTACAATAATCAAAAGCCGGAGTCACCTAGTGCAG,24500 fluorescence intensity (a.u.)
13,GAAAAGTAAACTGGGCCCAAATGCCAAGTCAGCGAAGCTCCGGAGTCACCTAGTGCAG,4220 fluorescence intensity (a.u.)
14,TAAACATGAGGCAGTATAGATATAATCTTCCGTGTGTGGTCGGAGTCACCTAGTGCAG,3150 fluorescence intensity (a.u.)
15,ATCATATCCCAAAGCATGGTAGCCACTACTAATATTTGTTCGGAGTCACCTAGTGCAG,3390 fluorescence intensity (a.u.)
16,CAGAACACGGTAACGATTCCGATTCCCTCACGTTAATTGTCGGAGTCACCTAGTGCAG,3570 fluorescence intensity (a.u.)
17,TGGTGATGTGGATGTGATGTTTACATTTGCTGCTGCCTTTCGGAGTCACCTAGTGCAG,9060 fluorescence intensity (a.u.)
18,GGAAACCTATCTATCGTGTTCTCGTATCCACTCGTGTCCACGGAGTCACCTAGTGCAG,3680 fluorescence intensity (a.u.)
19,CGAGGCTAATCGATAGAACTGATATACTATGATAGTATATCGGAGTCACCTAGTGCAG,3210 fluorescence intensity (a.u.)
20,GCCCAACATTTGCTCTTCGCAGACAGAGAGATAGCTGACGCGGAGTCACCTAGTGCAG,26000 fluorescence intensity (a.u.)
21,GCTCTCTTGGCCTTAGGTTATCATGGTACGTGTTTCCCTACGGAGTCACCTAGTGCAG,3280 fluorescence intensity (a.u.)

# A run of entries from further up, for reference:
row,Sequence,binding signal
13,GAAAAGTAAACTGGGCCCAAATGCCAAGTCAGCGAAGCTCCGGAGTCACCTAGTGCAG,4220 fluorescence intensity (a.u.)
14,TAAACATGAGGCAGTATAGATATAATCTTCCGTGTGTGGTCGGAGTCACCTAGTGCAG,3150 fluorescence intensity (a.u.)
15,ATCATATCCCAAAGCATGGTAGCCACTACTAATATTTGTTCGGAGTCACCTAGTGCAG,3390 fluorescence intensity (a.u.)
16,CAGAACACGGTAACGATTCCGATTCCCTCACGTTAATTGTCGGAGTCACCTAGTGCAG,3570 fluorescence intensity (a.u.)
17,TGGTGATGTGGATGTGATGTTTACATTTGCTGCTGCCTTTCGGAGTCACCTAGTGCAG,9060 fluorescence intensity (a.u.)
18,GGAAACCTATCTATCGTGTTCTCGTATCCACTCGTGTCCACGGAGTCACCTAGTGCAG,3680 fluorescence intensity (a.u.)
19,CGAGGCTAATCGATAGAACTGATATACTATGATAGTATATCGGAGTCACCTAGTGCAG,3210 fluorescence intensity (a.u.)
20,GCCCAACATTTGCTCTTCGCAGACAGAGAGATAGCTGACGCGGAGTCACCTAGTGCAG,26000 fluorescence intensity (a.u.)
21,GCTCTCTTGGCCTTAGGTTATCATGGTACGTGTTTCCCTACGGAGTCACCTAGTGCAG,3280 fluorescence intensity (a.u.)
